Reference: PubChem BioAssay AID504467 (National Center for Advancing Translational Sciences (NCATS), 2011)
Among all 330,000 compounds or so, about 7,700 (2.3%) were called active. This list was built around the results that the source calls inconclusive (neither active nor inactive); the mix of calls is not that of the screen. Calls follow the shape of the dose curve; as a rule, active = well fitted inhibition curve with a large enough effect; inconclusive = small, poorly fitted or top-dose-only effect, or effect the other way; inactive = flat fitted curve, though single readings scatter. Where the call is inconclusive, the potency comes from a doubtful curve fit.

Assay: qHTS screen for small molecules that inhibit ELG1-dependent DNA repair in human embryonic kidney (HEK293T) cells expressing luciferase-tagged ELG1; also: nearly all actives have a fitted effect of over 55% in size
Conditions: HEK293T ELG1-luciferase reporter, luminescence, 16 h, DNA damage induced by 5-fluorouridine; activity change, negative = inhibition: at 46.1 µM (top of the series)
How it was run: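 Step one: seed 2,000 cells per well. Step two: pin-transfer compound or DMSO alongside 5-fluorouridine. Step three: incubate 16 hr, 37 °C, 5% CO2. Step four: add ONE-Glo, wait 30 min, read luminescence.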
% is scaled to controls: 0 for no effect and ±100 for the full control effect; potency is read from the fitted curve at half-maximal effect.

| Compound | activity change, negative = inhibition | Potency |
| --- | --- | --- |
| CCCC(NC(=O)C(C)Sc1nnnn1C1CC1)c1ccccc1 (stereo not drawn) | inactive: 4.47% |  |
| CC1Cc2ccccc2N1c1ncnc(N)c1[N+](=O)[O-] (stereo not drawn) |  | active: 1.46 µM |
| CCCNC(=O)C1CCCN(S(=O)(=O)c2ccc3c(c2)CC(C)N3C(=O)C2CC2)C1 (stereo not drawn) |  | inconclusive: 9.2 µM [activator, partial curve, poor fit] |
| CC(Nc1nc(-c2ccccc2)nc2ccccc12)c1ccccc1 (stereo not drawn) |  | inconclusive: 6.51 µM [activator, single point] |
| C#CCOCCOCCOCCNc1nc(N2CCN(C(=O)CCCCCCCCCCNC(=O)[C@H](CCCN=C(N)N)n3cc(C[C@@H](C)CC)nn3)CC2)nc(N2CCN(C(=O)CCCCCCCCCCNC(=O)[C@@H]([C@H](C)CC)n3cc(CCCCCN)nn3)CC2)n1 |  | inconclusive: 31.6 µM [inhibitor, single point] |
| CC(C)n1c(NCc2ccc(N(C)C)cc2)nc2ccccc21 |  | inconclusive: 32.6 µM [activator, partial curve, poor fit] |
| COc1cc(C(=O)N2CCC(n3c(C)nc4cc(F)ccc43)CC2)cc(OC)c1OC |  | inconclusive: 6.51 µM [inhibitor, single point] |
| CCNc1ccc(S(=O)(=O)N(C)C)cc1NCC(=O)Nc1c(F)cccc1F |  | inconclusive: 29.1 µM [inhibitor, single point] |
| CSc1nc(N)nc(SCC(=O)C(C)(C)C)c1C#N |  | inconclusive: 16.4 µM [activator, partial curve, poor fit] |
| COc1ccc2cc(CCNC(=O)c3ccco3)c(=O)[nH]c2c1 |  | inconclusive: 20.6 µM [activator, partial curve] |
| CC1=CC(C)(C)Nc2ccc(OS(=O)(=O)c3ccc(C)cc3)cc21 | inactive: 2.12% |  |
| S=c1[nH]c(-c2ccc(Br)cc2)cn1CCc1ccccc1 | inactive: 1.89% |  |
| Cc1ccn2cc(C(=O)Nc3nnc(C)s3)nc2c1 |  | inconclusive: 9.2 µM [activator, partial curve] |
| Cc1ccnc(NC(=O)c2cnc(Cl)c(Cl)c2)c1 | inactive: 11.2% |  |
| CC1CCN(C(=O)CS(=O)(=O)Cc2ccccc2)CC1 |  | inconclusive: 18.3 µM [activator, single point] |
| CNC(=S)N1CCc2cc(OC)c(OC)cc2C1 |  | inconclusive: 10.3 µM [activator, partial curve, poor fit] |
| COc1ccc(-c2sc3ccc(N4CCOCC4)cc3c2C#CCO)cc1 |  | active: 5.17 µM |
| COc1ccc(N2C(=O)c3ccccc3NC2c2cccnc2)cc1 (stereo not drawn) |  | inconclusive: 25.9 µM [activator, single point] |

2 entries drawn at random from those above:

| Compound | activity change, negative = inhibition | Potency |
| --- | --- | --- |
| COc1ccc(-c2sc3ccc(N4CCOCC4)cc3c2C#CCO)cc1 |  | active: 5.17 µM |
| CC1=CC(C)(C)Nc2ccc(OS(=O)(=O)c3ccc(C)cc3)cc21 | inactive: 2.12% |  |
